Values from PubChem BioAssay AID1508597 (Cure First, 2020)
Purpose: 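Survival screen with siRNA in ovarian cancer cells derived from patients, with or without rucaparib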 (primary screen). Cells: human ovarian carcinoma lines grown from tumours: OCI-P5x (papillary serous) and OCI-C5x (clear cell). Knock-down reagent: siRNA pool against human genes, 1.25 pmol siRNA per well. Time to read-out: 72 h or 96 h, depending on the cell culture. Conditions: rucaparib 20 µM (about IC30) or vehicle, present until read-out. Rucaparib or vehicle: Vehicle. Cell line: OCI-C5x (clear cell). Detection: 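ATP luminescence measured at 72 or 96 h according to the culture, then normalised and expressed as percent viability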. Direction: viability, normalised: higher = more viable cells remaining. Active means: 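Active when normalised viability falls below 80 percent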. Calls: active = viability under 80%; inactive = viability 80% or more.
This is a random part of the about 2,100 reagents, under one of the conditions tested. 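Calls flag viability under 80% in either arm, not effects specific to rucaparib; the reference for percent is not stated.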 Unmarked entries are inactive. Not given: the 100% reference.

MAP2K5 (GeneID 5607), technical replicate 1 scored viability, normalised (%) = 59.9 (active). MAP2K5 (GeneID 5607), technical replicate 2 showed viability, normalised (%) = 58 (active). MAP2K5 (GeneID 5607), technical replicate 3 scored viability, normalised (%) = 57.2 (active). For RARA (GeneID 5914), technical replicate 1 the deposit lists viability, normalised (%) = 46.4 (active). With RARA (GeneID 5914), technical replicate 2, the values are viability, normalised (%) = 35.4 (active). With RARA (GeneID 5914), technical replicate 3 the deposit lists viability, normalised (%) = 45.2 (active).

For RBL1 (GeneID 5933), technical replicate 1, the values are viability, normalised (%) = 50.7 (active). RBL1 (GeneID 5933), technical replicate 2 scored viability, normalised (%) = 35 (active). RBL1 (GeneID 5933), technical replicate 3 gave viability, normalised (%) = 45.2 (active). With SIN3B (GeneID 23309), technical replicate 1 the deposit lists viability, normalised (%) = 28.4 (active). SIN3B (GeneID 23309), technical replicate 2 gave viability, normalised (%) = 27.5 (active). For SIN3B (GeneID 23309), technical replicate 3 the deposit lists viability, normalised (%) = 31.4 (active).

For SIK2 (GeneID 23235), technical replicate 1, the entry reads viability, normalised (%) = 39.5 (active). For SIK2 (GeneID 23235), technical replicate 2, the values are viability, normalised (%) = 38.6 (active). With SIK2 (GeneID 23235), technical replicate 3, the values are viability, normalised (%) = 36.7 (active). PIP4K2C (GeneID 79837), technical replicate 1 showed viability, normalised (%) = 52.6 (active). PIP4K2C (GeneID 79837), technical replicate 2 showed viability, normalised (%) = 52.9 (active). With PIP4K2C (GeneID 79837), technical replicate 3 the deposit lists viability, normalised (%) = 41.5 (active).

For WRNIP1 (GeneID 56897), technical replicate 1, the entry reads viability, normalised (%) = 42.4 (active). For WRNIP1 (GeneID 56897), technical replicate 2, the values are viability, normalised (%) = 52.7 (active). For WRNIP1 (GeneID 56897), technical replicate 3 the deposit lists viability, normalised (%) = 43 (active). RCOR3 (GeneID 55758), technical replicate 1 scored viability, normalised (%) = 60.2 (active). RCOR3 (GeneID 55758), technical replicate 2 gave viability, normalised (%) = 59.7 (active). RCOR3 (GeneID 55758), technical replicate 3 scored viability, normalised (%) = 64.5 (active).

MORC4 (GeneID 79710), technical replicate 1 gave viability, normalised (%) = 58.3 (active). MORC4 (GeneID 79710), technical replicate 2 gave viability, normalised (%) = 65.9 (active). MORC4 (GeneID 79710), technical replicate 3 gave viability, normalised (%) = 59.6 (active). RAD51B (GeneID 5890), technical replicate 1 showed viability, normalised (%) = 50.1 (active). For RAD51B (GeneID 5890), technical replicate 2, the values are viability, normalised (%) = 51.2 (active). RAD51B (GeneID 5890), technical replicate 3 gave viability, normalised (%) = 46.6 (active).

For CDH5 (GeneID 1003), technical replicate 1, the entry reads viability, normalised (%) = 59.3 (active). With CDH5 (GeneID 1003), technical replicate 2 the deposit lists viability, normalised (%) = 57.4 (active). CDH5 (GeneID 1003), technical replicate 3 showed viability, normalised (%) = 53.1 (active).

Records above whose target name starts with M or m (6):
MAP2K5 (GeneID 5607), technical replicate 1 | viability, normalised (%) = 59.9 (active)
MAP2K5 (GeneID 5607), technical replicate 2 | viability, normalised (%) = 58 (active)
MAP2K5 (GeneID 5607), technical replicate 3 | viability, normalised (%) = 57.2 (active)
MORC4 (GeneID 79710), technical replicate 1 | viability, normalised (%) = 58.3 (active)
MORC4 (GeneID 79710), technical replicate 2 | viability, normalised (%) = 65.9 (active)
MORC4 (GeneID 79710), technical replicate 3 | viability, normalised (%) = 59.6 (active)
